Ends that are not written are not given here.
Test: Concentration of active peptides in fermented milk (standard addition flow injection MRM)
Conditions: typical measured concentration in fermented milk

Substance	Concentration [mg/L]
KVLPVP [Lys-Val-Leu-Pro-Val-Pro]	0.1
DKIHPF	1.8
KVLPVPQ [Lys-Val-Leu-Pro-Val-Pro-Gln]	0.9
